Results on 2 substances are retold here after paper doi:10.1101/2025.07.28.666932.

No constants are given. Whether binding was seen depends on the method and setting. Some binding calls cover weakened binding; strength is not graded here.

Test [1] addresses fluorinase FlA1 from Streptomyces sp. strain MA37 (5'-fluoro-5'-deoxyadenosine synthase), wild type (Streptomyces sp. strain MA37) (UniProt W0W999). Kind of test: mass photometry.
Test [2] addresses fluorinase FlA1 variant C44T (Streptomyces sp. strain MA37) (UniProt W0W999). Put plainly: mass photometry.

Consider “fluorinase FlA1 from Streptomyces sp. strain MA37 (5'-fluoro-5'-deoxyadenosine synthase), wild type (from UniProt W0W999 1-299) (enzyme)”, for which the binding result in test [1] was “binds”.
Consider “fluorinase FlA1 variant C44T (from UniProt W0W999 1-299) (enzyme)”, for which the binding result in test [2] is listed as “binds”.
